# Assay results published in the supplement of paper PMC8728848.
# Some of the results follow.
# Tests used:
# Experiment in all cases: glycan array binding signal (z-score within array); higher = stronger binding
# Settings in all cases: glycan notation: IUPAC condensed, linker removed
# Fuc(a1-2)[Gal(a1-3)]Gal = biological target: Fuc(a1-2)[Gal(a1-3)]Gal
# In short: (§1)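 The binding signal is a Z-score computed within each array. Data were drawn from 3228 arrays in the Consortium for Functional Glycomics database, restricted to those with a known protein sequence. Scores were averaged over arrays of the same protein sequence at different concentrations or buffers, and over linkers, and negative values can be taken as non-binding.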
# [1] = biological target: Fuc(a1-2)[Gal(a1-3)]Gal(b1-3)GlcNAc
# In short: as §1
# [2] = biological target: Fuc(a1-2)[Gal(a1-3)]Gal(b1-3)GlcNAc(b1-2)Man(a1-3)[Fuc(a1-2)[Gal(a1-3)]Gal(b1-3)GlcNAc(b1-2)Man(a1-6)]Man(b1-4)GlcNAc(b1-4)GlcNAc
# In short: as §1
# [3] = biological target: Fuc(a1-2)[Gal(a1-3)]Gal(b1-4)Glc
# In short: as §1
# [4] = biological target: Fuc(a1-2)[Gal(a1-3)]Gal(b1-4)GlcNAc
# In short: as §1
# [5] = biological target: Fuc(a1-2)[Gal(a1-3)]Gal(b1-4)GlcNAc(b1-2)Man(a1-3)[Fuc(a1-2)[Gal(a1-3)]Gal(b1-4)GlcNAc(b1-2)Man(a1-6)]Man(b1-4)GlcNAc(b1-4)GlcNAc
# In short: as §1
# [6] = biological target: Fuc(a1-2)[Gal(a1-3)]Gal(b1-4)[Fuc(a1-3)]GlcNAc
# In short: as §1
# [7] = biological target: Fuc(a1-2)[Gal(a1-4)]Gal(b1-4)GlcNAc
# In short: as §1
# [8] = biological target: Fuc(a1-2)[GalNAc(a1-3)]Gal
# In short: as §1
# [9] = biological target: Fuc(a1-2)[GalNAc(a1-3)]Gal(b1-3)GalNAc(a1-3)[Fuc(a1-2)]Gal(b1-4)GlcNAc
# In short: as §1
# [10] = biological target: Fuc(a1-2)[GalNAc(a1-3)]Gal(b1-3)GlcNAc
# In short: as §1
# [11] = biological target: Fuc(a1-2)[GalNAc(a1-3)]Gal(b1-3)GlcNAc(b1-2)Man(a1-3)[Fuc(a1-2)[GalNAc(a1-3)]Gal(b1-3)GlcNAc(b1-2)Man(a1-6)]Man(b1-4)GlcNAc(b1-4)GlcNAc
# In short: as §1
# [12] = biological target: Fuc(a1-2)[GalNAc(a1-3)]Gal(b1-4)Glc
# In short: as §1
# [13] = biological target: Fuc(a1-2)[GalNAc(a1-3)]Gal(b1-4)GlcNAc
# In short: as §1
# [14] = biological target: Fuc(a1-2)[GalNAc(a1-3)]Gal(b1-4)GlcNAc(b1-2)Man(a1-3)[Fuc(a1-2)[GalNAc(a1-3)]Gal(b1-4)GlcNAc(b1-2)Man(a1-6)]Man(b1-4)GlcNAc(b1-4)GlcNAc
# In short: as §1
# [15] = biological target: Fuc(a1-2)[GalNAc(a1-3)]Gal(b1-4)GlcNAc(b1-3)Gal(b1-4)GlcNAc
# In short: as §1
# [16] = biological target: Fuc(a1-2)[GalNAc(a1-3)]Gal(b1-4)GlcNAc(b1-3)Gal(b1-4)GlcNAc(b1-3)Gal(b1-4)GlcNAc
# In short: as §1
# [17] = biological target: Fuc(a1-2)[GalNAc(a1-3)]Gal(b1-4)[Fuc(a1-3)]GlcNAc
# In short: as §1
# [18] = biological target: Fuc(a1-2)[GalNAc(a1-4)]Gal(b1-4)GlcNAc
# In short: as §1
# [19] = biological target: Fuc(a1-2)[GalNAc(b1-3)]Gal
# In short: as §1
# Fuc(a1-3)GlcNAc = biological target: Fuc(a1-3)GlcNAc
# In short: as §1
# [20] = biological target: Fuc(a1-3)[Gal(b1-4)]Glc6S
# In short: as §1
# [21] = biological target: Fuc(a1-3)[Gal(b1-4)]GlcNAc
# In short: as §1
# [22] = biological target: Fuc(a1-3)[Gal(b1-4)]GlcNAc(b1-2)Man(a1-3)[Fuc(a1-3)[Gal(b1-4)]GlcNAc(b1-2)Man(a1-6)]Man(b1-4)GlcNAc(b1-4)GlcNAc
# In short: as §1
# [23] = biological target: Fuc(a1-3)[Gal(b1-4)]GlcNAc(b1-3)Gal(b1-3)[Fuc(a1-4)]GlcNAc
# In short: as §1
# [24] = biological target: Fuc(a1-3)[Gal(b1-4)]GlcNAc(b1-3)GalNAc
# In short: as §1
# [25] = biological target: Fuc(a1-3)[Gal(b1-4)]GlcNAc(b1-4)Gal(b1-4)[Fuc(a1-3)]GlcNAc
# In short: as §1
# [26] = biological target: Fuc(a1-3)[Gal(b1-4)]GlcNAc(b1-4)Gal(b1-4)[Fuc(a1-3)]GlcNAc(b1-4)Gal(b1-4)[Fuc(a1-3)]GlcNAc
# In short: as §1
# [27] = biological target: Fuc(a1-3)[Gal(b1-4)]GlcNAc(b1-6)[Gal(b1-3)GlcNAc(b1-3)]Gal(b1-4)Glc
# In short: as §1
# [28] = biological target: Fuc(a1-3)[Gal(b1-4)]GlcNAc6S
# In short: as §1
binder,measurement,setting,value
"PEB4 (Campylobacter jejuni), A1VYV6 (protein) MKKFSLVAAALIAGVALNVNAATVATVNGKSISDAEVSEFFAPMLRGQDFKTLPDNQKKALIQQYIMQDLILQDAKKQNLEKDPLYTKELDRAKDAILVNVYQEKILNTIKIDAAKVKAFYDQNKDKYVKPARVQAKHILVATEKEAKDIINELKGLKGKELDAKFSELAKEKSIDPGSKNQGGELGWFDQSTMVKPFTDAAFALKNGTITTTPVKTNFGYHVILKENSQAKGQIKFDEVKQGIENGLKFEEFKKVINQKGQDLLNSAKVEYK",glycan array binding signal (z-score),Fuc(a1-2)[Gal(a1-3)]Gal,-0.517
same,glycan array binding signal (z-score),[1],0.388
same,glycan array binding signal (z-score),[2],-0.582
same,glycan array binding signal (z-score),[3],-0.379
same,glycan array binding signal (z-score),[4],-0.349
same,glycan array binding signal (z-score),[5],1.3
same,glycan array binding signal (z-score),[6],0.477
same,glycan array binding signal (z-score),[7],-0.298
same,glycan array binding signal (z-score),[8],0.13
same,glycan array binding signal (z-score),[9],0.481
same,glycan array binding signal (z-score),[10],1.94
same,glycan array binding signal (z-score),[11],-0.265
same,glycan array binding signal (z-score),[12],-0.535
same,glycan array binding signal (z-score),[13],0.789
same,glycan array binding signal (z-score),[14],1.9
same,glycan array binding signal (z-score),[15],0.759
same,glycan array binding signal (z-score),[16],0
same,glycan array binding signal (z-score),[17],1.13
same,glycan array binding signal (z-score),[18],0.144
same,glycan array binding signal (z-score),[19],0.071
same,glycan array binding signal (z-score),Fuc(a1-3)GlcNAc,-0.572
same,glycan array binding signal (z-score),[20],-0.356
same,glycan array binding signal (z-score),[21],-0.387
same,glycan array binding signal (z-score),[22],-0.571
same,glycan array binding signal (z-score),[23],-0.033
same,glycan array binding signal (z-score),[24],1.72
same,glycan array binding signal (z-score),[25],0.912
same,glycan array binding signal (z-score),[26],-0.132
same,glycan array binding signal (z-score),[27],1.05
same,glycan array binding signal (z-score),[28],1.19

# Copied from the entries so far for reference:
binder,measurement,setting,value
"PEB4 (Campylobacter jejuni), A1VYV6 (protein) MKKFSLVAAALIAGVALNVNAATVATVNGKSISDAEVSEFFAPMLRGQDFKTLPDNQKKALIQQYIMQDLILQDAKKQNLEKDPLYTKELDRAKDAILVNVYQEKILNTIKIDAAKVKAFYDQNKDKYVKPARVQAKHILVATEKEAKDIINELKGLKGKELDAKFSELAKEKSIDPGSKNQGGELGWFDQSTMVKPFTDAAFALKNGTITTTPVKTNFGYHVILKENSQAKGQIKFDEVKQGIENGLKFEEFKKVINQKGQDLLNSAKVEYK",glycan array binding signal (z-score),[18],0.144
same,glycan array binding signal (z-score),[19],0.071
